Test system: Escherichia coli
Experiment: Antimicrobial activity against Escherichia coli assessed as reduction in microbial growth
Assay type: functional, organism-based

For `CN[C@@H]1[C@@H](O)[C@@H](O[C@@H]2[C@@H](O)[C@H](O[C@H]3O[C@H](CN)CC[C@H]3N)[C@@H](N)C[C@H]2N)OC[C@]1(C)O` [GENTAMICIN C1A], the IC50 was 4.23 µM.

From ChEMBL document CHEMBL6134800, “Applications of innovative synthetic strategies in anticancer drug discovery: The driving force of new chemical reactions” (Bioorg Med Chem Lett, 2025)
